Experimental findings from publication PMC12469161, “Anti-cancer compound screening identifies Aurora Kinase A inhibition as a means to favor CRISPR/Cas9 gene correction over knock-out” (PLOS One, 2025) are described below.

The subject of this assay is HEK293T-eGFP cells. As to the kind of experiment: MTT cytotoxicity assay, 72 hours. It is filed as cell-based. The protocol:
Cells were cultured for 16–24 hours under standard culturing conditions (5% CO2, 37 °C). […] All dose ranges were added in duplicate, followed by 72 hours of incubation. Cell viability was determined using a tetrazolium based metabolic activity assay. Briefly, 5 µL of 3-(4.5-dimethylthiazol-2-yl)-2,5-diphenyltetrazolium bromide (MTT) solution (5 mg/mL MTT in sterile PBS) was added per well, and the microplates were incubated for 4 hours at 37°C and 5% CO2 in a cell culture incubator. Next, 40 µL of 10% SDS/0.01 M HCl was added per well, and the microplates were incubated for 24–72 hours at 37°C and 5% CO2 in a cell culture incubator. Subsequently the absorbance at 570 nm and background absorbance at 720 nm were measured using the Spectramax i3x (Molecular Devices, San Jose, USA). Subsequently, the absorbance values at 720 nm were subtracted from the absorbance values at 570 nm, and the corresponding values were used to plot dose-response curves.
The data was normalized to the DMSO-treated cells (defined as 100% viability) and the empty controls (defined as 0% viability).

`CCNC(=O)C[C@@H]1N=C(c2ccc(Cl)cc2)c2cc(OC)ccc2-n2c(C)nnc21` [Molibresib] gave an IC50 of 1780 nM.

As usually defined, the IC50 is the concentration at which inhibition is half-maximal. The low end stands for inhibition by little substance, the high end for a need for much substance.
